The target in the series is PU.1 (UniProt P17947). The experiment in a line: EMSA. The settings on record: anti-PU.1 antibody used, less than T allele. (In general: A gel shift assay detects complexes by their altered migration in electrophoresis.)

Construct, isoform or probe ends are uncertain for at least one entry. A weaker result is weaker than the reference pair of the same experiment.

Consider “CTATTTGCCTTTAAACACCGGAAATAACACCAGTGGC (double strand) [rs1412444-C]”, for which the binding result is “binds more weakly”.

The values above are taken from article doi:10.1101/2022.11.12.516293.
